No constants are given. Whether binding was seen depends on the method and setting. Some results given as binding are weak or reduced against the parent protein; the word gives no strength.

Common to all, as to assay: co-purification (anti-Flag affinity resin, then SEC; Coomassie-stained SDS-PAGE); subunits co-expressed in HEK293F; membranes solubilized with 1% GDN; anti-Flag G1 resin, elution with Flag peptide, Superose 6 in 25 mM HEPES pH 7.5, 150 mM NaCl, 0.01% GDN; which subunit carries the Flag tag is not stated
Test [1] addresses T1, SPT complex with the ALS-associated SPTLC1 variant Δ39 (Leu39) (human) (UniProt O15269+O15270+Q969W0).
T1 sequence 1: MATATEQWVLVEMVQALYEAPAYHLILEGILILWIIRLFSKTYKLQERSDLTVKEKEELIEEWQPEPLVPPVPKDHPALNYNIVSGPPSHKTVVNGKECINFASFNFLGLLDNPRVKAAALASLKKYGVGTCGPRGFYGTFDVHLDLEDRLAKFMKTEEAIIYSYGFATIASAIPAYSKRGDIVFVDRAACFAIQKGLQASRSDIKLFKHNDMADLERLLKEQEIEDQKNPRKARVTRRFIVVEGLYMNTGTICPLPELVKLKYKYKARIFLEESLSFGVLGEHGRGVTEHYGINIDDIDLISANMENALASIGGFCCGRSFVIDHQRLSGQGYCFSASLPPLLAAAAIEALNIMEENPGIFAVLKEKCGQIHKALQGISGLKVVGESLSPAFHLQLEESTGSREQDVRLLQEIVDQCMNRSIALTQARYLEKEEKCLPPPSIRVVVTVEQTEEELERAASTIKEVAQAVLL
T1 sequence 2: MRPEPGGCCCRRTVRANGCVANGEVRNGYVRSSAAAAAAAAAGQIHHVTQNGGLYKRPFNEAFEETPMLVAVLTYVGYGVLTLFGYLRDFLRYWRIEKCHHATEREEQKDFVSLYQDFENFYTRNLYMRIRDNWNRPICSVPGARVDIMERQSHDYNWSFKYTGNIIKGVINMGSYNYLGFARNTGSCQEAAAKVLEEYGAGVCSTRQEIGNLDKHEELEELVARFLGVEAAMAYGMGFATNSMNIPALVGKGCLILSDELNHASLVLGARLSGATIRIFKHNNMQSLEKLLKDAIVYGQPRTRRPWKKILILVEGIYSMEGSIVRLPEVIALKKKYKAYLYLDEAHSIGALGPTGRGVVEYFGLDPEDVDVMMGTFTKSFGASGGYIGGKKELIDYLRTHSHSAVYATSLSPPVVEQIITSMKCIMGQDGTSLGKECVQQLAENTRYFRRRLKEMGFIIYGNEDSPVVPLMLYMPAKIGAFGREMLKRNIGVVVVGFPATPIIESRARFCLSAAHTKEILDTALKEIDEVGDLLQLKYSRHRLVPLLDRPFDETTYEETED
T1 sequence 3: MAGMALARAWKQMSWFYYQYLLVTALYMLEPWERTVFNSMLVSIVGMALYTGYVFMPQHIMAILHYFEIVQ

Test [2] addresses T2, serine palmitoyltransferase (SPT) complex (SPTLC1, SPTLC2, SPTssa) (human) (UniProt O15269+O15270+Q969W0).
T2 sequence 1: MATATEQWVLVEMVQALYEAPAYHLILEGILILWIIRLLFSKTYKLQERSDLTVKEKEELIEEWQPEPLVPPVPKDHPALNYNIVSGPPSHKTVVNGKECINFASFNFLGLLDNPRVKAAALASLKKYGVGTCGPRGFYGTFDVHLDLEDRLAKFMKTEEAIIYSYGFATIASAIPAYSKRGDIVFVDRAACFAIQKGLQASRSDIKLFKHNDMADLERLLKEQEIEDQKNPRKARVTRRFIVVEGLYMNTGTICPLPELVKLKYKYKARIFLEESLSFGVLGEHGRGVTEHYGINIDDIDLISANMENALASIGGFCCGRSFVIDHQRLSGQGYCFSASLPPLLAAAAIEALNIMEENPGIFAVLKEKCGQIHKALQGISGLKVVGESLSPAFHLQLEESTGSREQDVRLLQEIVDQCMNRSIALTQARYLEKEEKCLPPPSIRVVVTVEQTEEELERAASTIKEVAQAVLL
T2 sequence 2: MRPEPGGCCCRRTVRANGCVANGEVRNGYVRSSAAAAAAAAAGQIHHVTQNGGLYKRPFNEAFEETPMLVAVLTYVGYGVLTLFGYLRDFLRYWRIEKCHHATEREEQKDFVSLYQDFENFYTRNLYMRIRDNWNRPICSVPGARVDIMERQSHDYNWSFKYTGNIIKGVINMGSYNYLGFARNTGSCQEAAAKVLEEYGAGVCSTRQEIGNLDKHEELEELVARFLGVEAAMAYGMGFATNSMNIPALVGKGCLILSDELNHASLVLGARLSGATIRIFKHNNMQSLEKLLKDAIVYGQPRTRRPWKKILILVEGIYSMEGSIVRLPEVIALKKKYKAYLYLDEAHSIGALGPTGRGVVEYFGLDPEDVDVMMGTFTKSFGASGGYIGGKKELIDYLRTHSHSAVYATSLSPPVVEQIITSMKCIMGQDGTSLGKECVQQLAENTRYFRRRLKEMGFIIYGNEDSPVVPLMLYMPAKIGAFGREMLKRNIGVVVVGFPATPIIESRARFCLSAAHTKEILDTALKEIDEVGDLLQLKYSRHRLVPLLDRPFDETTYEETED
T2 sequence 3: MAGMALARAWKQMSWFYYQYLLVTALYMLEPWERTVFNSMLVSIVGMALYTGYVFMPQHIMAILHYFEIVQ

The target in test [3] is T3, SPT complex with Ile503 of SPTLC2 replaced by arginine (human) (UniProt O15269+O15270+Q969W0).
T3 sequence 1: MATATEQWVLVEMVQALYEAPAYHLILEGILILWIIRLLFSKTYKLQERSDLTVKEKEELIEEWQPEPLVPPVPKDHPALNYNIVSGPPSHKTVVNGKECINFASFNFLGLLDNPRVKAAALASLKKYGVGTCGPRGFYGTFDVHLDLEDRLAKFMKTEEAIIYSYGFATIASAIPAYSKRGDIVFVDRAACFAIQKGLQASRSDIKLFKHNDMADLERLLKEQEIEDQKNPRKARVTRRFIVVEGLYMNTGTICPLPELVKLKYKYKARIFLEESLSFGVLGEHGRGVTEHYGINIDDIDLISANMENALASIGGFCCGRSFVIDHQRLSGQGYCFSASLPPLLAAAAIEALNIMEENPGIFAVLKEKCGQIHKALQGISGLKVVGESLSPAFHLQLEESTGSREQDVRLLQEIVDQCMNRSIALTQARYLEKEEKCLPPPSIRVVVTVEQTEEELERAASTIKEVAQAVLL
T3 sequence 2: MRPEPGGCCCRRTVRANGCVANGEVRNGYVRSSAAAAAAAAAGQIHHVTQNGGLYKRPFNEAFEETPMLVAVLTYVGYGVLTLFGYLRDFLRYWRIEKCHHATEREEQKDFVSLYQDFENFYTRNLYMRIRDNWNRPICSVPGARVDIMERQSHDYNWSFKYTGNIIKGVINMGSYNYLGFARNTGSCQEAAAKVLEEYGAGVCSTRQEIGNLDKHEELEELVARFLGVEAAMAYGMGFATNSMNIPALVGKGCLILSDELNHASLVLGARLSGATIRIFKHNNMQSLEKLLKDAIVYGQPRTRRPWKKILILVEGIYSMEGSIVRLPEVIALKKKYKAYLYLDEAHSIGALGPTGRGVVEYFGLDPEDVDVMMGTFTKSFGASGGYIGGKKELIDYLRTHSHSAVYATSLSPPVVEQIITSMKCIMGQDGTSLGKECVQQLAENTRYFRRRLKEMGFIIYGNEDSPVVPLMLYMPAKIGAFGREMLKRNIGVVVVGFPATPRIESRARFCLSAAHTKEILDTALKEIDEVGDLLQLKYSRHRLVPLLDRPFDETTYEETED
T3 sequence 3: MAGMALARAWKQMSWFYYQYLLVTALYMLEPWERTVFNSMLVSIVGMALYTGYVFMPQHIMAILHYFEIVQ

The target in test [4] is T4, SPT complex with the ALS-associated SPTLC1 variant Δ40-41 (Phe40/Ser41) (human) (UniProt O15269+O15270+Q969W0).
T4 sequence 1: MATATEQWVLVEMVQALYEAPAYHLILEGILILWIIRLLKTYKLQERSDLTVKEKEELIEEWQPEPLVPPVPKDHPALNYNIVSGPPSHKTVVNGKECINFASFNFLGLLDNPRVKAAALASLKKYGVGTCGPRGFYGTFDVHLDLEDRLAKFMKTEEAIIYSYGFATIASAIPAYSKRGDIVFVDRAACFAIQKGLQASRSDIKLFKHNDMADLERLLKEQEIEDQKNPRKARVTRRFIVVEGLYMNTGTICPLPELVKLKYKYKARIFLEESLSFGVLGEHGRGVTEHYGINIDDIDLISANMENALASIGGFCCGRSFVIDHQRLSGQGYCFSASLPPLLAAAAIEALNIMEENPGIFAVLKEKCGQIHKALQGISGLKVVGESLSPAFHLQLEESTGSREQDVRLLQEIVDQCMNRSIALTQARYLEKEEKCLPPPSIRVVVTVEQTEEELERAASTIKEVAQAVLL
T4 sequence 2: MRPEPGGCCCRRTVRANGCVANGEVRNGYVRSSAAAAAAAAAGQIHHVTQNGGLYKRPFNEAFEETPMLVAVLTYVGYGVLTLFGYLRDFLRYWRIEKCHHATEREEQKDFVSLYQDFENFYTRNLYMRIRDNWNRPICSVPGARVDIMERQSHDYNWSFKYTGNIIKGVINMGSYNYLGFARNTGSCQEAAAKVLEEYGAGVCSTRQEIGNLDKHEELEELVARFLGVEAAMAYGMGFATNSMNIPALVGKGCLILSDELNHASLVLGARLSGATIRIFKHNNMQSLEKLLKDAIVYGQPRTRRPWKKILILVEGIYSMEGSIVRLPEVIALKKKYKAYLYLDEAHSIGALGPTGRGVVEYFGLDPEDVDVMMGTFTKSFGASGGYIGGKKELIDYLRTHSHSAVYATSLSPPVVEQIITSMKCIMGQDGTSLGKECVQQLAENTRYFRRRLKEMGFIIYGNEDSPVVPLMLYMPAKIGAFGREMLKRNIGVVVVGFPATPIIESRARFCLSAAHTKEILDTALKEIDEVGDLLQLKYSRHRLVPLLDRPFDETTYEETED
T4 sequence 3: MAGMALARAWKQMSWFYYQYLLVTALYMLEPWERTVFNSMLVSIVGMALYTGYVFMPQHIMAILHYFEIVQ

For test [5], the target named is T5, SPT complex with SPTLC2-Y122A (human) (UniProt O15269+O15270+Q969W0).
T5 sequence 1: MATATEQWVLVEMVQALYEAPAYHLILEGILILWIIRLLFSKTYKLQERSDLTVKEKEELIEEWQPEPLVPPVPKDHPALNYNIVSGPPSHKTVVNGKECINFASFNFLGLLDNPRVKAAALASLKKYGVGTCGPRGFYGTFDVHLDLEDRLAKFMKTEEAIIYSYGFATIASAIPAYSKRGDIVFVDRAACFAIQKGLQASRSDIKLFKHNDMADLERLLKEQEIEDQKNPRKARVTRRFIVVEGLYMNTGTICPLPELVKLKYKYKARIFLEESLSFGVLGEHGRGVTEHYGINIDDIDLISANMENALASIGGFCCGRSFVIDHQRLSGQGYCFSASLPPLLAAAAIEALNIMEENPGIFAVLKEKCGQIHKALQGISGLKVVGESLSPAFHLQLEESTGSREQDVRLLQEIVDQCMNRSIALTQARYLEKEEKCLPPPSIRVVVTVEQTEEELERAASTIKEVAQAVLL
T5 sequence 2: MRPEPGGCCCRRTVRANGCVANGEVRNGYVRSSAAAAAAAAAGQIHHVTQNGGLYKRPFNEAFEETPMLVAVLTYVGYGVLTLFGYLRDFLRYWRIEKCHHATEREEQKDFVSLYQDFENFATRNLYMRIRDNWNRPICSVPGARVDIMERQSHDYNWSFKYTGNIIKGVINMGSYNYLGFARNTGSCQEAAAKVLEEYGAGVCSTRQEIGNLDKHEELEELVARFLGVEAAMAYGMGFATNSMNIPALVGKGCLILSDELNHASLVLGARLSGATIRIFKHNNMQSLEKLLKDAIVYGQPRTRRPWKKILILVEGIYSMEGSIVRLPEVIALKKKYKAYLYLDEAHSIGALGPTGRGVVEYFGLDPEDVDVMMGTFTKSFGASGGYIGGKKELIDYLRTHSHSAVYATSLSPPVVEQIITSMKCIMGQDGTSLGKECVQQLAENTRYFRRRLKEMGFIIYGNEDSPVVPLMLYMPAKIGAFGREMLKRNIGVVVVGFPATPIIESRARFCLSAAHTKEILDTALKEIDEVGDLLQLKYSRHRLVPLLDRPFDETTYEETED
T5 sequence 3: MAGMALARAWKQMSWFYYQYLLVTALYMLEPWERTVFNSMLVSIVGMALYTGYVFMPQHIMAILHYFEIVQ

B1: ORMDL3 (full-length, wild type) (natural protein, human, UniProt Q8N138 1-153, looked up)
chain: MNVGTAHSEVNPNTRVMNSRGIWLSYVLAIGLLHIVLLSIPFVSVPVVWTLTNLIHNMGMYIFLHTVKGTPFETPDQGKARLLTHWEQMDYGVQFTASRKFLTITPIVLYFLTSFYTKYDQIHFVLNTVSLMSVLIPKLPQLHGVRIFGINKY
notes: ORMDL3, human, codon-optimized full-length cDNA in pCAG (new ORMDL3-FL plasmid without the 14 extra nucleotides upstream of the ORF); cDNAs were cloned 'with an N-terminal Flag tag or without a tag'; also called ORMDL3-FL; WT ORMDL3; source: HEK293F, transiently co-transfected with the SPT subunits, purified as a complex (anti-Flag resin, SEC, GDN)
As for B1, the binding entry in test [1], in test [2], in test [3], in test [4] and in test [5] was “binds” in each case.

B2: ORMDL3 with Ile22 replaced by arginine (protein, UniProt Q8N138 1-153)
chain: MNVGTAHSEVNPNTRVMNSRGRWLSYVLAIGLLHIVLLSIPFVSVPVVWTLTNLIHNMGMYIFLHTVKGTPFETPDQGKARLLTHWEQMDYGVQFTASRKFLTITPIVLYFLTSFYTKYDQIHFVLNTVSLMSVLIPKLPQLHGVRIFGINKY
Take B2: in test [2], the binding entry is “binds”.

B3: ORMDL3-F63P (protein, UniProt Q8N138 1-153)
chain: MNVGTAHSEVNPNTRVMNSRGIWLSYVLAIGLLHIVLLSIPFVSVPVVWTLTNLIHNMGMYIPLHTVKGTPFETPDQGKARLLTHWEQMDYGVQFTASRKFLTITPIVLYFLTSFYTKYDQIHFVLNTVSLMSVLIPKLPQLHGVRIFGINKY
Turning to B3, in test [2], the binding result is recorded as “binds”.

For the origin of these results see publication PMC10261145, “Ceramide sensing by human SPT-ORMDL complex for establishing sphingolipid homeostasis” (Nature Communications, 2023).
